The whole screen tested about 53,000 sequences, of which about 3,700 (7%) were called active.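 How the source made its calls: active means gene knockdowns whose robust z-score for IL-1 alpha signal is at least 2 or at most -2, so actives lie on both sides; inactive means the rest.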 This is one part of the list.

This test can be described thus: Components of the Cytosolic LPS Sensing Pathway: Gene Identification via Genome-wide siRNA Screen.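 Further: robust z of the log signal after scaling to non-targeting control siRNA wells of the plate.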 As to conditions: RAW264.7 macrophages, IL-1a HTRF, actives lie on both sides, screened at 100 nM (by protocol), cells primed 5 h with Pam3CSK4 first. In short, it runs like this: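 IL-1a HTRF of supernatants after 24 hour LipidA transfection of Pam3CSK4-primed (5 hours) RAW264.7 cells, 48h post-siRNA transfection (100 nM). Scores: percent of plate negative-control median, then log-based robust z-score.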
Background: TR-FRET usually uses a lanthanide donor and a delayed reading to cut background.
In the case of GGUUCCAUCUGUCCUACUUTT against Actr10, the z-score was inactive: 0.000211.

Turning to CCACACAAUGGCCAAGUAGTT against Ppp1r16a, the z-score is inactive: -0.282.

On to GGCAGAGAUGCUUUAUAAATT against Hars2, for which the z-score was inactive: -0.485. As to GCCCAACAGCUACACCUUATT against Clec2e, the z-score is inactive: -0.508. With CCUGUCUUUGAACGAUGUGTT against Olfr1279 the figure was inactive: -0.633.

Turning to GCUUAACUGCCAUUCUGAATT against Fn3krp, the z-score was inactive: -0.642. The value for GGAAAACCAGAUAAAGAAATT against Cog1 was inactive: 0.676; that for GGAUGUACUUGACACCCAGTT against Cyfip1 was inactive: -0.118; that for CCUAUUACAAUGUACGUGUTT against Ssh3 was inactive: 0.491. In the case of GCUUAUGAUGAACAAGCCCTT against Clec4b2, the z-score was inactive: -0.632.

On to GCCAUACUACAUCACAGAGTT against S100a7a, for which the z-score is inactive: 0.77. In the case of GGCCUAGCAAUUCUUGAGCTT against Gm5087, the z-score was inactive: -0.18. Regarding GGAGUGAUGUCUUCACUGATT against Snx31, the z-score is inactive: -1.12. Regarding GGCUUUAUGACAUCAUUUGTT against Rab5if, the z-score was inactive: 1.86. As for CGAAACCUGUUCUUCUGCCTT against Serpinb8, the z-score is inactive: 0.852.

As to GGAAUAAGAUCUGGUAUGATT against Idh2, the z-score was inactive: 0.288. The value for GCUCUAUAUCUCCUUAGCCTT against Olfr450 was inactive: -0.64; that for GGCUGAUCAUCCAGUCCAATT against Jund was inactive: -0.975; that for CGUGGUUCCUCUUUGGUGUTT against Kcnj10 was inactive: -0.217. The value for GGGCUGAAGUUUUAUACCATT against Wasf1 was inactive: -0.83. CCAAGAACCUUCGUCUGCUTT against Apobec2: the z-score was inactive: 0.91. For GGCUCACAGGACCUAUUUCTT against Col6a6, the z-score was active: -3.15.

With GGUGUAUGGACAAGGAGUUTT against Pgpep1, the z-score was inactive: -0.79. Regarding “CGAGAAAAGAGGUUGGCUGTT against 6330444E15Rik”, the z-score was inactive: -0.366. Turning to GGAUCCUGAACGAAAAAGGTT against Med19, the z-score was inactive: -0.0986. Consider GGAGGACCUUCAGAAACUCTT against Gdap2, for which the z-score is inactive: 1.14.

For the sequence GGUAGAAAUUUACCUCAUUTT against Dusp4, the z-score was inactive: -1.42. On to CCUGGCUAUUGGUGAGUGATT against Slc30a3, for which the z-score was inactive: 1.9. For the sequence GGAACUCACGCUGAGUUCCTT against Lrrtm1, the z-score was inactive: -0.269.

The record behind these values is PubChem BioAssay AID1508600 (Functional Genomics Laboratory (NCATS/FGL), 2020).
